Results are given in words; binding and its absence hold for the method and conditions named.
Molecular target: 1-382 N-GPR56-Fc fusion protein (human) (UniProt Q9Y653)
Test: SPR; as a2 but with 3 mM GTP instead of Ca2+: BIAcore T200, protein A chip with captured 1-382 N-GPR56-Fc, C277S-TG2 as analyte, 25 °C, HBS; both purified

Amino acid sequences for entries named in this document (tags omitted). Residues count along the entry.
UniProt Q9Y653, residues 26-382: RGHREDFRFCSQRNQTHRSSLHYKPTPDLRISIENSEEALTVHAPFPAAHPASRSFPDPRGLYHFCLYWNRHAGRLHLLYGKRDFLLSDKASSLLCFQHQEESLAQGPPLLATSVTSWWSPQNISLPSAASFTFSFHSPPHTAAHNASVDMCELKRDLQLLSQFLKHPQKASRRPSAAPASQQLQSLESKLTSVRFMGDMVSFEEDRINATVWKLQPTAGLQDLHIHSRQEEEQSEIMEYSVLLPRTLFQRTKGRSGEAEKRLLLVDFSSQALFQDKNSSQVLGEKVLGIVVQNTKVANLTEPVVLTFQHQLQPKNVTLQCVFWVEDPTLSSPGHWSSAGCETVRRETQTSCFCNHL

B1: C277S-TG2 (catalytically deficient TG2 C277S mutant) (enzyme, UniProt P21980 1-687)
chain: MAEELVLERCDLELETNGRDHHTADLCREKLVVRRGQPFWLTLHFEGRNYEASVDSLTFSVVTGPAPSQEAGTKARFPLRDAVEEGDWTATVVDQQDCTLSLQLTTPANAPIGLYRLSLEASTGYQGSSFVLGHFILLFNAWCPADAVYLDSEEERQEYVLTQQGFIYQGSAKFIKNIPWNFGQFEDGILDICLILLDVNPKFLKNAGRDCSRRSSPVYVGRVVSGMVNCNDDQGVLLGRWDNNYGDGVSPMSWIGSVDILRRWKNHGCQRVKYGQSWVFAAVACTVLRCLGIPTRVVTNYNSAHDQNSNLLIEYFRNEFGEIQGDKSEMIWNFHCWVESWMTRPDLQPGYEGWQALDPTPQEKSEGTYCCGPVPVRAIKEGDLSTKYDAPFVFAEVNADVVDWIQQDDGSVHKSINRSLIVGLKISTKSVGRDEREDITHTYKYPEGSSEEREAFTRANHLNKLAEKEETGMAMRIRVGQSMNMGSDFDVFAHITNNTAEEYVCRLLLCARTVSYNGILGPECGTKYLLNLNLEPFSEKSVPLCILYEKYRDCLTESNLIKVRALLVEPVINSYLLAERDLYLENPEIKIRILGEPKQKRKLVAEVSLQNPLPVALEGCTFTVEGAGLTEEQKTVEIPDPVEAGEEVKVRMDLLPLHMGLHKLVVNFESDKLKAVKGFRNVIIGPA
binding: no binding (condition: with 3 mM GTP)

From PMC10889368, “Mesenchymal Transglutaminase 2 Activates Epithelial ADAM17: Link to G-Protein-Coupled Receptor 56 (ADGRG1) Signalling” (International Journal of Molecular Sciences, 2024)
